Test results from patent US20190233540A1.
Numbering of substitutions follows the chain as printed. These are yes or no findings as the source states them, for the method shown. Some results given as binding are weak or reduced against the parent protein; the word gives no strength.

Chains of the proteins cited; added tags and fusions are not shown. Residues count along the entry.
UniProt Q80W65, residues 35-694: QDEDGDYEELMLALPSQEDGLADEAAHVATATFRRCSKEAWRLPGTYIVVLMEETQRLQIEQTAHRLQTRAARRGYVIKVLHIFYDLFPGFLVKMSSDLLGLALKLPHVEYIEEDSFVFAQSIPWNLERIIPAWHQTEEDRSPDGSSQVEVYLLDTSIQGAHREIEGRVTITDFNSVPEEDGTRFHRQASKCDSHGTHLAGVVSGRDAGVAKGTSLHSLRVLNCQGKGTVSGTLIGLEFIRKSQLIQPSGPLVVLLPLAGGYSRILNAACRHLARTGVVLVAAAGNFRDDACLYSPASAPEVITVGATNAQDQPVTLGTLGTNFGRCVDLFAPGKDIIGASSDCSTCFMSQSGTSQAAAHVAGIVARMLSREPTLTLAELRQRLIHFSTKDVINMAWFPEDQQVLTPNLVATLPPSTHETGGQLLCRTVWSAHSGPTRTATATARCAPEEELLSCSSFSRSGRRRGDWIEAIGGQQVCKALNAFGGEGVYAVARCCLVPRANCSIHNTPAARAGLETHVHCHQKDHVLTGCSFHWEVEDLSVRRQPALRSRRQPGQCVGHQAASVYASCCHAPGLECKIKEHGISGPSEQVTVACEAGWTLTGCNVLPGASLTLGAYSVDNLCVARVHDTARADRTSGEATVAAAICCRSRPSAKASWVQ

B1: 2B12 murine-derived anti-PCSK9 monoclonal antibody (antibody, V domains shown)
VH: DVQLQESGPGLVKPSQSLSLTCSVTGFSITSDYAWNWIRQFPGNKLEWMGYISYSGTTNYNPSLKSRISITRDTSKNQFFLHLNSVITEDTATYYCARREGHYSWFPYWGQGTLVTVSA
VL: DIVLTQSPASLAVSLGQRATISCRASESVEYYGTSLMHWYQHKPGQTPKLLIYSGSNVESGVPARFSGSGSGTDFSLNIHPVEEDDIAMYFCQQSREVPSTFGGGTKLEIK
B2: 3G12 murine-derived anti-PCSK9 monoclonal antibody (antibody, V domains shown)
VH: QVQLKQSGPSLLQPSQSLSITCTVSGFSLTSYGIHWVRQSPGKGLEWLGVIWRGGITDYNAPFMSRLNITKDNSKNQVFFKMNSLQVDDTAIYYCANHRDWGQGTLVTVSA
VL: DIQMTQSPSSLSASLGGKVTITCKASQDINKYIDWYQHKPGKSPRLLIHYASTLQPGIPSRFSGSGSGRDYSFSISNLEPEDIATYYCLQYDDLWTFGGGTKLEIK
B3: 1A5 murine-derived anti-PCSK9 monoclonal antibody (antibody, V domains shown)
VH: B2 VH with L12V, I34V, I56S, P62A, N68S, N76S, V87A
VL: B2 VL with G17D, S43G, A51T, L89V

These binders were tested against murine-derived PCSK9 (murine) (UniProt Q80W65) (assay: ELISA, species cross-reactivity).

binding	Binder
binds	B1
binds	B2
binds	B3
